Here are results for 1 sequence from paper PMC7615647, “Visualization of direct and diffusion-assisted RAD51 nucleation by full-length human BRCA2 protein” (Molecular cell, 2023).

Chains of the proteins cited; added tags and fusions are not shown. A line that says so, or that is headed by a name, gives the form on record, which may keep a tag or linker. Residues count along the entry.
UniProt P51587, 966-3418: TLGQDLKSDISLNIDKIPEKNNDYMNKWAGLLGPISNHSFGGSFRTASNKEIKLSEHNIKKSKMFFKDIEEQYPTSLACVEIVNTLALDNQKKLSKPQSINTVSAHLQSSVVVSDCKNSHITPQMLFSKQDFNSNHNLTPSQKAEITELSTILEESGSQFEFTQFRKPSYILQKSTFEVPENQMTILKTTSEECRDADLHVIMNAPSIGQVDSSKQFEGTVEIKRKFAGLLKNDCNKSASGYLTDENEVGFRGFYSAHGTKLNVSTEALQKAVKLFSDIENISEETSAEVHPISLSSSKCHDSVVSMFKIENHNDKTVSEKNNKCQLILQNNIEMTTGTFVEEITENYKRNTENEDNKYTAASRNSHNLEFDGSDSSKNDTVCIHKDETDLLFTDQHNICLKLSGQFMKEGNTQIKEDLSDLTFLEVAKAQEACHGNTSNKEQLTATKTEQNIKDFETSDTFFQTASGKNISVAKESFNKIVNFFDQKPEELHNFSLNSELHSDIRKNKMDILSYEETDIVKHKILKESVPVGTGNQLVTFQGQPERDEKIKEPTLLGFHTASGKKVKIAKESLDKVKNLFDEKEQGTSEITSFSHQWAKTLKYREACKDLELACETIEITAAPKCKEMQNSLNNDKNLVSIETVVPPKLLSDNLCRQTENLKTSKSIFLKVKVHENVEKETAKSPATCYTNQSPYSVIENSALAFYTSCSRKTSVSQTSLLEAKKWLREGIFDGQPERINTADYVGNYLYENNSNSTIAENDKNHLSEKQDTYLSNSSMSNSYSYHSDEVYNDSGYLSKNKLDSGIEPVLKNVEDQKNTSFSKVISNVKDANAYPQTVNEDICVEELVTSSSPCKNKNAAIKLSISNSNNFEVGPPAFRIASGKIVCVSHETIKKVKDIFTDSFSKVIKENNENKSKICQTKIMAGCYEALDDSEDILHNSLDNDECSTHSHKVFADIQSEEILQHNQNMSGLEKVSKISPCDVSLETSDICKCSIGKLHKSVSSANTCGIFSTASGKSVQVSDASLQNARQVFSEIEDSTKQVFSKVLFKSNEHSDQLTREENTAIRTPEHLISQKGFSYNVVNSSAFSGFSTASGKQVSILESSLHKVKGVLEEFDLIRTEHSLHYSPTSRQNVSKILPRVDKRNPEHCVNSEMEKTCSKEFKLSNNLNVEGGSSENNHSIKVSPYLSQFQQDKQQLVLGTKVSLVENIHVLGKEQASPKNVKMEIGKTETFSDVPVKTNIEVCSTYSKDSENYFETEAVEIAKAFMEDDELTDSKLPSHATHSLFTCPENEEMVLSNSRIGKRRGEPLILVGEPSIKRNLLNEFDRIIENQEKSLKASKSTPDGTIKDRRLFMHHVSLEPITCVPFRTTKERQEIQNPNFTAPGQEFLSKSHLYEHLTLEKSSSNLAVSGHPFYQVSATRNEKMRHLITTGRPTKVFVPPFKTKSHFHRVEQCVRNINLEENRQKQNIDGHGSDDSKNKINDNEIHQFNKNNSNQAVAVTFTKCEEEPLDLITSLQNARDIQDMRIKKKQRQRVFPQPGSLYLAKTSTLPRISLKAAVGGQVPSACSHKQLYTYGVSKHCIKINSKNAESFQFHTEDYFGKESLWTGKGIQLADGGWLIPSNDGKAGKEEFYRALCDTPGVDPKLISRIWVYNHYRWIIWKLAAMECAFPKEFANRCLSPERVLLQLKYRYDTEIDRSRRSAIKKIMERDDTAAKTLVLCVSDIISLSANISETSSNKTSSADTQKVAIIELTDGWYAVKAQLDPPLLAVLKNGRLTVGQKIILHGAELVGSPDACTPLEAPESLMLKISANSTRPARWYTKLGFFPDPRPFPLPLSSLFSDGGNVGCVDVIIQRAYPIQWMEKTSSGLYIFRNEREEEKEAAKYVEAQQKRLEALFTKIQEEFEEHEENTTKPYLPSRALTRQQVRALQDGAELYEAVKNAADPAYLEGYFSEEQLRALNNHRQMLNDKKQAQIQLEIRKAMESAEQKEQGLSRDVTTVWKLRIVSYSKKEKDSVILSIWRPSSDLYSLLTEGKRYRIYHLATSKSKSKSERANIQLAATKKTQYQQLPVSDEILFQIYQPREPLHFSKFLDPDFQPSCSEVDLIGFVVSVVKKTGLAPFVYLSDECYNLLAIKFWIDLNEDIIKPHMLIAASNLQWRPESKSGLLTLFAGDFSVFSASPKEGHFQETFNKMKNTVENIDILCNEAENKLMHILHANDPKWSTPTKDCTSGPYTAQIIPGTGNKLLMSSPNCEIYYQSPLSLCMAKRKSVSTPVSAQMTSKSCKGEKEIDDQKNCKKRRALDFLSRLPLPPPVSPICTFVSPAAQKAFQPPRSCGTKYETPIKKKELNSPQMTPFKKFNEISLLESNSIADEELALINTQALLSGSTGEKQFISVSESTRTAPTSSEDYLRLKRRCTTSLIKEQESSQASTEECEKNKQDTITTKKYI
UniProt P51587, 1-2142: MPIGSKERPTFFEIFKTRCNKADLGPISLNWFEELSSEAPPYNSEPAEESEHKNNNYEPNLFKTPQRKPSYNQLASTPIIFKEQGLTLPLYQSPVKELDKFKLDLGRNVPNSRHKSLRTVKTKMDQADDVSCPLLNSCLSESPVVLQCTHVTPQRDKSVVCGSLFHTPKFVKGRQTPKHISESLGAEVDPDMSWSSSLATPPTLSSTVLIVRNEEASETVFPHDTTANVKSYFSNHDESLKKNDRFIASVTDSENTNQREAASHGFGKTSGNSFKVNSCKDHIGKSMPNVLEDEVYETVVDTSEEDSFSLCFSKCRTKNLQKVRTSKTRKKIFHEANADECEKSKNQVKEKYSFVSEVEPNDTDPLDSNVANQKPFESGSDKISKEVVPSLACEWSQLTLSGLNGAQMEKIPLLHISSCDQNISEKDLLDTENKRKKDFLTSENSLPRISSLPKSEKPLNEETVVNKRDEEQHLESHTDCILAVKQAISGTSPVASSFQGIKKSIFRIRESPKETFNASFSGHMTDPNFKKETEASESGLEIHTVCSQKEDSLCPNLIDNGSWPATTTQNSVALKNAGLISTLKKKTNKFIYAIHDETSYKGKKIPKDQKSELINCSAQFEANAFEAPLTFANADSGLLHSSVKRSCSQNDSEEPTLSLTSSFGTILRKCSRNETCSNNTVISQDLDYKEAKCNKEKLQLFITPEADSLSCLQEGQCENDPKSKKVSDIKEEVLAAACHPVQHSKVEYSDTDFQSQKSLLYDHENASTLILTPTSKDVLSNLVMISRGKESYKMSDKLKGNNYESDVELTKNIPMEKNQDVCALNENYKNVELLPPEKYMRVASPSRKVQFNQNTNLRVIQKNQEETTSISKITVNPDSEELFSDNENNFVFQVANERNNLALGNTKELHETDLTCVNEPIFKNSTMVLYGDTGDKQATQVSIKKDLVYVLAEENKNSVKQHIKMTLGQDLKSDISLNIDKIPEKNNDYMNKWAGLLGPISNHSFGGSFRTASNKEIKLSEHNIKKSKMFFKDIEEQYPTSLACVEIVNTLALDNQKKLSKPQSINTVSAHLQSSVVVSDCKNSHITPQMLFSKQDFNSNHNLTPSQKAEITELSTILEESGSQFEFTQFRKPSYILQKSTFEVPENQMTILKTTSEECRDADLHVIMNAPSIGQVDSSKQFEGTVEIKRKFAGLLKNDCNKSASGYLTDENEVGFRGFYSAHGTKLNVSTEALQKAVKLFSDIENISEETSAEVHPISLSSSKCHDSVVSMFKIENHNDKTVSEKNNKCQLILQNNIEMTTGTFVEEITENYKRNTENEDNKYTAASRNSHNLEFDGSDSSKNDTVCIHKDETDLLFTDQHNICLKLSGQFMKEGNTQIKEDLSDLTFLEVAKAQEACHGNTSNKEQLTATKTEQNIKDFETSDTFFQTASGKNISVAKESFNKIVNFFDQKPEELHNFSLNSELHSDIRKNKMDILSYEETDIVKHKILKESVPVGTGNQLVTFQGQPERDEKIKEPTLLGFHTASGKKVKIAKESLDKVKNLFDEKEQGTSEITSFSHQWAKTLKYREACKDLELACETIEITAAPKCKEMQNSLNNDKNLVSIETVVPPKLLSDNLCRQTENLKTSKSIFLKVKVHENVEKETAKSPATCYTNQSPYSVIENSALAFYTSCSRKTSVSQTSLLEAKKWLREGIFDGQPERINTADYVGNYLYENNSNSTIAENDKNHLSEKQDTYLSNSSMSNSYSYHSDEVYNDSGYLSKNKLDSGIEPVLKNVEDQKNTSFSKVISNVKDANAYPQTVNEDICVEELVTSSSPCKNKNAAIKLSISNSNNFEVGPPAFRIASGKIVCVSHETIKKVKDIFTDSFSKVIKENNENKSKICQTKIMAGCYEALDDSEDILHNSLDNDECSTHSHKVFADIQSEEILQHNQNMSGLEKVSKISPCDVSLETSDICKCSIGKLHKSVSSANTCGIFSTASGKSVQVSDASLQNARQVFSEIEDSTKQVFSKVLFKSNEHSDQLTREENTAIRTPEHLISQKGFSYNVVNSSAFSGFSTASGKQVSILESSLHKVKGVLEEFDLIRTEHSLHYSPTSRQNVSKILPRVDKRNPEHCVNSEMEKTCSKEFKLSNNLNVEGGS
BRCA2-C (Homo sapiens), one chain, as listed by the source, chain 3 of 3: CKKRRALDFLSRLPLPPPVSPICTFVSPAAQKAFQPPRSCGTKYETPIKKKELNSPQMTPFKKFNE
BRCA2-C (Homo sapiens), one chain, as listed by the source, chain 2 of 3: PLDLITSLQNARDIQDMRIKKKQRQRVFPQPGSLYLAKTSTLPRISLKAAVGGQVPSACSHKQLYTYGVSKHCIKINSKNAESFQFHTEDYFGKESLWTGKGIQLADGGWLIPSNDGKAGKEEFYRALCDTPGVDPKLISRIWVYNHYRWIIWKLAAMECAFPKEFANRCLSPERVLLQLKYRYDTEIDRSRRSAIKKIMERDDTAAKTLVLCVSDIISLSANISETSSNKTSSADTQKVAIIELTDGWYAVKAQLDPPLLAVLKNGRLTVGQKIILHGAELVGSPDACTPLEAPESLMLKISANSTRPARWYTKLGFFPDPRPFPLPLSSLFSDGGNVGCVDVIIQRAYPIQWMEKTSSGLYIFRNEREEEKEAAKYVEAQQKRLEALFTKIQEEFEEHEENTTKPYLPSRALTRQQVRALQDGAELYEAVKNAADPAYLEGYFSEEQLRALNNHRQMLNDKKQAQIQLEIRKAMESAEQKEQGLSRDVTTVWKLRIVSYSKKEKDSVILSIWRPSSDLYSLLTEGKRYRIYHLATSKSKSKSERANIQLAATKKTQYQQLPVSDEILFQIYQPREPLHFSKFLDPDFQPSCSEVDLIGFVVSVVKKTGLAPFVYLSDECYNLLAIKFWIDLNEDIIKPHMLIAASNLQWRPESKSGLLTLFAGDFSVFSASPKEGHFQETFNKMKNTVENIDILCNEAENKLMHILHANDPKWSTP
BRCA2-C (Homo sapiens), one chain, as listed by the source, chain 1 of 3: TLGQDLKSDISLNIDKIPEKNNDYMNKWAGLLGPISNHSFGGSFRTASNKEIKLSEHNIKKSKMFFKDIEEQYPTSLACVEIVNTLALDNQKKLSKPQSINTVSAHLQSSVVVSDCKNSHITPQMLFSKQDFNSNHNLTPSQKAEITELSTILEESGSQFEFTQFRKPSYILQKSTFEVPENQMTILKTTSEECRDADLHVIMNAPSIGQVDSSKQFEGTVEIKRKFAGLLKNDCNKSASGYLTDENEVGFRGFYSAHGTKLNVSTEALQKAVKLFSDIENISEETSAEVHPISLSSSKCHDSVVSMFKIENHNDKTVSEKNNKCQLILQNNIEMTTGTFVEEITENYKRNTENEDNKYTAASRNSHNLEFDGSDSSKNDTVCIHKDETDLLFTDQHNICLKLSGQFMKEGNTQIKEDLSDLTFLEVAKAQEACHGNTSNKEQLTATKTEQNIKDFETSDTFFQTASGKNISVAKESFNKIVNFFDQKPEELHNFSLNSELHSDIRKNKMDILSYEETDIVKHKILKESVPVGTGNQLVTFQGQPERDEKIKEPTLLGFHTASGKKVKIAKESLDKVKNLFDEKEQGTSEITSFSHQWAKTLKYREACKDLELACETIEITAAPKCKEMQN

What all share (assay): EMSA
In general terms: Mobility shift assays separate free from complexed probe on a gel.

One data set has as its target BRCA2-C2 (Homo sapiens) (UniProt P51587). The conditions noted are these: affinity correlates with RAD51 nucleation ability; EMSA: 4 nM Cy5-DNA, 20 mM HEPES pH 7.5, 1 mM MgCl2, 1 mM TCEP, 100 mM KCl, 24 C, 5 min; recombinant protein; residues 966-3418; protein details: C-terminal eGFP, twin strep; label: 5'-Cy5; single-stranded DNA.
The subject of another data set is BRCA2-C (Homo sapiens). The conditions noted are these: affinity correlates with RAD51 nucleation ability; EMSA: 4 nM Cy5-DNA, 20 mM HEPES pH 7.5, 1 mM MgCl2, 1 mM TCEP, 100 mM KCl, 24 C, 5 min; recombinant protein; protein details: C-terminal eGFP, twin strep; label: 5'-Cy5; single-stranded DNA.
For a further data set, the target named is BRCA2-N (Homo sapiens) (UniProt P51587). The conditions noted are these: affinity correlates with RAD51 nucleation ability; EMSA: 4 nM Cy5-DNA, 20 mM HEPES pH 7.5, 1 mM MgCl2, 1 mM TCEP, 100 mM KCl, 24 C, 5 min; recombinant protein; residues 1-2142; protein details: C-terminal eGFP, twin strep; label: 5'-Cy5; single-stranded DNA.
Data set [1] concerns the target BRCA2 full-length (Homo sapiens) (UniProt P51587). The conditions noted are these: eGFP status of full-length protein not stated; EMSA: 4 nM Cy5-DNA, 20 mM HEPES pH 7.5, 1 mM MgCl2, 1 mM TCEP, 100 mM KCl, 24 C, 5 min; recombinant protein; residues 1-3418; protein details: C-terminal Flag3; label: 5'-Cy5; single-stranded DNA.

For at least one entry, the source does not settle the construct or the ends of the probe. For some of these results: Weaker means in comparison with the reference protein, sequence or condition of that experiment. At least one verdict was read from the data and is not stated in words by the source.

For “CCAAGAAGCTGTTCAGAATCAGAATGAGCCGCAACTTCGGGATGAAAATGCTCACAATGACAAATCTGTCCACGGAGTGCTTAATCCAACTTACCAAGCT [100mer ssDNA]”, the binding result with BRCA2-C2 (Homo sapiens) is “binds”; in the data set with BRCA2-C (Homo sapiens), “binds more weakly”; with BRCA2-N (Homo sapiens) it was “binds more weakly”; in data set [1], “binds”.
